Experimental data as given in PubChem BioAssay AID445 (National Center for Advancing Translational Sciences (NCATS), 2006).
This is one part of the list. Further columns of the screen follow, without active or inactive calls. Compounds called inactive in the main read-out are mostly missing here. Words in brackets tell the shape of the fitted curve; partial curves, single points and poor fits give uncertain potencies.

Assay: IkB Signaling
Conditions: ABC-DLBCL IkBa-CBG/CBR dual luciferase ratio (green luciferase fused to IkBa over red control in OCI-Ly3 lymphoma cells), 4 h; measured here: control luc red channel unless noted
Outline: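 Curves were fitted separately to fusion (green), unfused (red) and ratio luminescence, then classed by r2, magnitude and activity. Cells: OCI-Ly3, 4 h compound plus doxycycline at 37C; 10 uM MG-132 defined full response.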
For `Cc1ccc(N2CC(NC(=O)C3CCCC3)CC2=O)cc1` (stereo not drawn), the AC50 was 7.94 µM [falling, single point].
For `CCOC(=O)N1CCC(Nc2nc3ccccc3nc2NS(=O)(=O)c2ccc(Cl)cc2)CC1`, the AC50 was 0.1 µM [falling, full curve].
For `COc1cccc(N2CCN(C(=O)Cn3ncc4c3-c3ccccc3OC4)CC2)c1`, the AC50 was 31.6 µM [falling, single point].
With `O=C1C2C3C=CC(CO)(O3)C2C(=O)N1c1ccccc1-c1ccccc1` (stereo not drawn) the AC50 was 3.16 µM [falling, full curve].
For `Cc1ccc(C(=O)c2cn(CC(=O)Nc3ccc4c(c3)OCCO4)c3nc(C)ccc3c2=O)cc1`, the AC50 was 15.8 µM [falling, partial curve, poor fit].
With `CCOc1ccc(Nc2c(S(=O)(=O)c3ccccc3)cnc3ccc(CC)cc23)cc1` the AC50 was 20 µM [falling, partial curve].
For `CSc1oc(-c2ccc(F)cc2)nc1S(=O)(=O)c1ccc(Br)cc1`, the AC50 was 12.6 µM [falling, partial curve].
For `O=C(CC1Nc2ccccc2NC1=O)c1ccccc1` (stereo not drawn), the AC50 was 2.51 µM [falling, full curve].
With `CC1=C(C(=O)Nc2cccnc2)C(c2ccc(F)cc2)n2nc(SCc3ccccc3)nc2N1` (stereo not drawn) the AC50 was 0.126 µM [falling, partial curve].
For `N#CCSc1nnc(Cc2cccc3ccccc23)n1C1CCCCC1`, the AC50 was 15.8 µM [falling, partial curve].
For `CCCCNC(=O)CSc1nc2ccccc2nc1Cc1ccccc1`, the AC50 was 25.1 µM [falling, partial curve].
In the case of `O=C(CCc1ccc(S(=O)(=O)N2CCCCC2)cc1)c1nnc(-c2ccccc2)o1`, the AC50 is reported as 3.16 µM [falling, partial curve].
With `N#Cc1c(SCC(N)=O)nc(-c2ccccc2)c2c1CCCC2` the AC50 was 10 µM [falling, partial curve].
In the case of `Cc1ccc(-n2c(=O)c3cccnc3n2CC(=O)Nc2ccccc2C(F)(F)F)cc1C`, the AC50 is reported as 6.31 µM [rising, partial curve].
With `COc1ccc(S(=O)(=O)N(C(=O)c2ccncc2)c2ccc3oc(C)c(C(C)=O)c3c2)cc1` the AC50 was 12.6 µM [falling, partial curve].
For `Cc1ccnc(NC(c2cc(C)ccc2O)c2ccc3cccnc3c2O)c1` (stereo not drawn), the AC50 was 20 µM [falling, partial curve].
In the case of `COc1ccc(-c2cn3c(n2)sc2cc(C(=O)NC4CCCCC4)ccc23)cc1`, the AC50 is reported as 39.8 µM [falling, single point].
For `COc1ccccc1N1CCN(Cc2cc(COC(C)C)c3cccnc3c2O)CC1`, the AC50 was 5.01 µM [falling, partial curve].
For `CCOC(=O)C1CCCN(C(=O)Cn2nc(C)n3c(cc4c(OC)cccc43)c2=O)C1` (stereo not drawn), the AC50 was 25.1 µM [falling, partial curve].
With `Cc1ccc(Nc2c(-c3cccc(Cl)c3)nc3cccc(C)n23)cc1` the AC50 was 15.8 µM [falling, partial curve, poor fit].
With `Cc1ccc(NC(=O)CSc2nc(=O)n(CCN3CCOCC3)c3c2CCC3)cc1Cl` the AC50 was 20 µM [falling, partial curve].
In the case of `Cn1c(=O)nc2n(-c3ccc(Br)cc3)c3cccc(Cl)c3cc-2c1=O`, the AC50 is reported as 6.31 µM [falling, partial curve].
For `CCCc1noc(-c2ccc(NCc3ccccc3OC)c([N+](=O)[O-])c2)n1`, the AC50 was 2.51 µM [rising, partial curve, poor fit].
For `Cc1[nH]c2ccccc2c1SCCNC(=O)c1ccc(F)cc1`, the AC50 was 15.8 µM [falling, partial curve].
With `CC(C)c1ccc(NC(=O)CSC2=Nc3ccccc3C3=NC(CC(=O)NCCc4ccccc4)C(=O)N23)cc1` (stereo not drawn) the AC50 was 25.1 µM [falling, single point].
With `COc1ccc(Cl)cc1NC(=O)c1c(NCc2cccs2)sc2c1CCC(C)C2` (stereo not drawn) the AC50 was 12.6 µM [falling, partial curve].
In the case of `CCOc1ccccc1NC(=O)CSc1nc(-c2cccs2)cc(C(F)(F)F)n1`, the AC50 is reported as 31.6 µM [falling, partial curve].
In the case of `O=C(CSc1nnc(-c2ccco2)o1)c1ccccc1`, the AC50 is reported as 15.8 µM [falling, partial curve].
In the case of `COc1ccc(N(C(=O)c2cc(OC)c(OC)c(OC)c2)S(=O)(=O)c2ccc(C)cc2)cc1`, the AC50 is reported as 25.1 µM [rising, partial curve].
For `CN(C)C1(CNC(=O)COc2cccc(Cl)c2)CCCCC1`, the AC50 was 15.8 µM [falling, partial curve].
With `Cc1ccccc1C(=O)Nc1ccc2nc(SCC(=O)N(C)c3ccccc3)sc2c1` the AC50 was 2 µM [falling, partial curve].
In the case of `Cc1cccc(Cn2c(SCc3ccc(C(=O)NCc4cccs4)cc3)nc3ccncc32)c1`, the AC50 is reported as 10 µM [falling, partial curve].
With `COc1cc(N)ccc1Cc1ccc(N)cc1OC` the AC50 was 5.01 µM [falling, partial curve].
In the case of `CCOc1cc(C2CC(=O)Nc3c2c(C)nn3-c2nc(C)cc(C)n2)ccc1O` (stereo not drawn), the AC50 is reported as 5.01 µM [rising, full curve, poor fit].
In the case of `Cc1ccc(-c2onc(C)c2C)cc1S(=O)(=O)NC1CCC(C)CC1` (stereo not drawn), the AC50 is reported as 15.8 µM [falling, partial curve].
For `COC(=O)c1cccnc1-n1c(=O)c2cccnc2n(CC(=O)Nc2cccc(C(F)(F)F)c2)c1=O`, the AC50 was 39.8 µM [falling, partial curve, poor fit].
With `O=C(/C=C/c1ccccc1)Nc1cc(-c2nc3ccccc3o2)ccc1Cl` the AC50 was 15.8 µM [rising, partial curve].
In the case of `FC(F)(F)c1cccc(N2CCN(Cc3nnc(-c4ccccc4)o3)CC2)c1`, the AC50 is reported as 7.94 µM [falling, partial curve].
For `CC(C)c1ccc(-c2noc(SCC(=O)N3CCCCC3)n2)cc1`, the AC50 was 25.1 µM [falling, single point].
With `O=C(Nc1ccc(N2CCOCC2)c(Cl)c1)c1c(F)c(F)c(F)c(F)c1F` the AC50 was 0.398 µM [falling, full curve].
With `CCOC(=O)N1CCN(c2nc(C(F)(F)F)nc3c(C)cc(C)cc23)CC1` the AC50 was 3.98 µM [falling, partial curve].
With `Cc1cccc(Cc2c(C)nc3nc(SCC(=O)NC4CCCCC4)nn3c2C)c1` the AC50 was 2.51 µM [falling, partial curve].
In the case of `Fc1ccc(-c2noc3ncnc(NCc4cccc(Cl)c4)c23)cc1`, the AC50 is reported as 0.0398 µM [falling, full curve, poor fit].
In the case of `CSc1cccc(NS(=O)(=O)c2ccc3[nH]cc(C(=O)N4CCCCCC4)c(=O)c3c2)c1`, the AC50 is reported as 15.8 µM [falling, single point].
With `COc1ccccc1CNC(=O)c1cnn(-c2ccc(F)cc2F)c1C1CCN(C(=O)OC(C)(C)C)CC1` the AC50 was 20 µM [falling, partial curve].
In the case of `COc1ccc(-c2nnc(SCc3nnc(-c4ccc(Cl)cc4)o3)n2-c2ccccc2)cc1`, the AC50 is reported as 12.6 µM [falling, partial curve].
With `Cc1ccccc1OCC(=O)Nc1nnc(S(=O)(=O)N(C)c2ccccc2)s1` the AC50 was 0.501 µM [rising, full curve].
For `O=C(Cn1c(=O)n(-c2ccccc2)c(=O)c2c3c(sc21)CCCC3)Nc1ccc(F)cc1`, the AC50 was 15.8 µM [falling, partial curve].
For `COc1ccccc1N1CCN(C(=O)c2cc3c(=O)n(Cc4cccnc4)ccc3nc2C)CC1`, the AC50 was 0.316 µM [rising, partial curve, poor fit].
With `CCC1Oc2ccccc2N(CC(=O)NCc2ccc(C)cc2)C1=O` (stereo not drawn) the AC50 was 31.6 µM [falling, single point].
With `COc1cccc(NC(=O)CN2C(=O)C3(SCC(=O)N3c3cc(C)cc(C)c3)c3ccccc32)c1` (stereo not drawn) the AC50 was 12.6 µM [falling, partial curve, poor fit].
For `COc1ccc2cc(C(c3nnnn3CCc3ccccc3)N3CCCC(C)C3)c(=O)[nH]c2c1` (stereo not drawn), the AC50 was 20 µM [falling, partial curve].
In the case of `O=C(Nc1ccc(Cl)cc1C(F)(F)F)c1cc(S(=O)(=O)NCc2ccccc2)ccc1F`, the AC50 is reported as 39.8 µM [falling, partial curve].
With `Cc1cc(C(=O)CSc2nnc(-c3cccs3)n2Cc2ccccc2)c(C)n1C` the AC50 was 15.8 µM [falling, partial curve].
In the case of `O=C(CSc1nccn1C1CCCC1)Nc1ccccc1`, the AC50 is reported as 0.2 µM [falling, single point].
With `COc1ccc(CNC(=O)CCS(=O)(=O)c2ccc3c(c2)CC(C)N3C(=O)C2CC2)cc1` (stereo not drawn) the AC50 was 39.8 µM [falling, partial curve].
For `O=C1c2ccccc2C(Nc2ccc(-c3nc4ccccc4[nH]3)cc2)N1Cc1ccco1` (stereo not drawn), the AC50 was 7.94 µM [falling, partial curve].
In the case of `CCc1nnc(NC(=O)CSc2ncc(-c3ccccc3)n2CC)s1`, the AC50 is reported as 31.6 µM [falling, single point].
With `Clc1ccc(-c2nnc(-c3cccc4ccccc34)o2)cc1Cl` the AC50 was 0.0631 µM [falling, full curve].
With `CCc1ccc(S(=O)(=O)c2nnn3c2nc(NCCC(C)C)c2cc(Cl)ccc23)cc1` the AC50 was 0.158 µM [falling, full curve].
In the case of `CC(CCc1ccccc1)NC(=O)C1CCCN(c2nnc(-n3cccc3)s2)C1` (stereo not drawn), the AC50 is reported as 12.6 µM [falling, partial curve].
In the case of `COc1ccc2c(c1)c(CC(=O)Nc1cc(C)c(OC)c(C)c1)c(C)n2C(=O)c1ccc(Cl)cc1`, the AC50 is reported as 7.94 µM [falling, partial curve].
In the case of `CC(=O)c1ccc(OC(=O)c2c(-c3ccccc3Cl)noc2C)cc1`, the AC50 is reported as 39.8 µM [falling, single point].
